The values that follow come from PubChem BioAssay AID256 (DTP/NCI, 2004).

The structures appear in SMILES notation. The list does not hold the whole screen: it gathers tests that were run many times, whatever their T/C, doses with no T/C, and many T/C values between a quarter and a half above the control. Other doses and runs of a compound stand elsewhere. T/C is the treated group as % of the vehicle group. Some doses have a count of surviving animals in place of a T/C: the source holds a T/C of zero for them, seemingly a mark for toxic or unscored doses. Some survivor counts are full or nearly so, which does not show that the dose was tolerated: the source hardly ever lists a survival T/C far under the control, and the zero likely stands for such cases as well. Counts of survivors are from the toxicity check (mostly the fifth day) where no day follows; animals may have died later. Schedules are NCI's codes, taken here to give the interval after Q, in days (D) or hours (H), and the number of doses after X. For survival time, the PubChem record calls one and a half times the control and up active, and a quarter to a half above the control has no call in these data; cut-offs in other NCI protocols can differ.

This test has as its system CD2F1 mice, L1210 leukemia ip, survival T/C. In words: NCI In Vivo Anticancer Drug Screen. Data for tumor model L1210 Leukemia (intraperitoneal) in CD2F1 (CDF1) mice. The following applies: higher T/C = longer survival. The gist of the method:
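In this screen, transplantable tumors were grown in mice given either the compound or its vehicle. Results were expressed as the treated measurement relative to the control measurement.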

[1] abbreviates: T/C endpoint: mean survival time, dose: 400.0 mg/kg/injection, schedule: Q01DX009 (ip), vehicle: saline with Tween-80.

For `CNC(=O)OCc1c(COC(=O)NC)c(-c2ccc(Cl)c(Cl)c2)n2c1Cc1ccccc1C2`, the T/C (T/C endpoint: median survival time, dose: 25.0 mg/kg/injection, schedule: Q01DX009 (ip), vehicle: distilled water + Tween-80) is 133 % of control; the T/C (T/C endpoint: median survival time, dose: 50.0 mg/kg/injection, schedule: Q01DX009 (ip), vehicle: distilled water + Tween-80) is 130 % of control; the T/C (T/C endpoint: median survival time, dose: 200.0 mg/kg/injection, schedule: Q01DX009 (ip), vehicle: distilled water + Tween-80) is 128 % of control. The survivor count (T/C endpoint: median survival time, dose: 400.0 mg/kg/injection, schedule: Q01DX009 (ip), vehicle: distilled water + Tween-80) is given as 6 of 6.

As to `O=c1[nH]cnc2c1nc(N1CCCC1)n2C1OC(CO)C(O)C1O` (stereo not drawn), the survivor count (T/C endpoint: mean survival time, dose: 200.0 mg/kg/injection, schedule: Q01DX005 (ip), vehicle: distilled water + Tween-80) is 2 of 6.

Take `O=c1[nH]nc(OCc2ccccc2)c2ncn(Cc3ccccc3)c12`: the survivor count was 3 of 3 (T/C endpoint: mean survival time, dose: 25.0 mg/kg/injection, schedule: Q01DX005 (ip), vehicle: other) and 3 of 3 (T/C endpoint: mean survival time, dose: 50.0 mg/kg/injection, schedule: Q01DX005 (ip), vehicle: other). Turning to `OCCN=Cc1ccccc1`, the survivor count by setting is: (T/C endpoint: mean survival time, dose: 200.0 mg/kg/injection, schedule: Q04DX003 (ip), vehicle: saline with Tween-80) 4 of 6; (T/C endpoint: mean survival time, dose: 400.0 mg/kg/injection, schedule: Q04DX003 (ip), vehicle: saline with Tween-80) 1 of 6. With `CN(C)C(=O)Sc1ccc(S(=O)(=O)F)cc1F`, the survivor count (T/C endpoint: mean survival time, dose: 400.0 mg/kg/injection, schedule: Q04DX002 (ip), vehicle: saline with Tween-80) is reported as 1 of 3. With `O=C(O)CC(Sc1ccccc1)c1ccccc1` (stereo not drawn), the survivor count (T/C endpoint: mean survival time, dose: 400.0 mg/kg/injection, schedule: Q04DX003 (ip), vehicle: other) is on record as 6 of 6.

`COc1cccc(CCN)c1`: under “T/C endpoint: mean survival time, dose: 150.0 mg/kg/injection, schedule: Q01DX009 (ip), vehicle: saline with Tween-80”, the survivor count was 3 of 6.

Consider `CC(C)CC(C)OP(=S)(S)OC(C)CC(C)C.[Cd]` (stereo not drawn), for which, under “T/C endpoint: mean survival time, dose: 100.0 mg/kg/injection, schedule: Q04DX002 (ip), vehicle: saline with Tween-80”, the survivor count is on record as 0 of 3. As for `COc1ccc(C(=O)/C=C/c2cccc3ccccc23)cc1`, the survivor count reads like this: (T/C endpoint: mean survival time, dose: 100.0 mg/kg/injection, schedule: Q01DX009 (ip), vehicle: saline with Tween-80) 3 of 3; (T/C endpoint: mean survival time, dose: 200.0 mg/kg/injection, schedule: Q01DX009 (ip), vehicle: saline with Tween-80) 3 of 3; under setting [1], 2 of 3. For the compound `CCOC(=O)N[C@H]1CCc2cc(OC)c(OC)c(OC)c2-c2ccc(SC)c(=O)cc21`, the survivor count is 4 of 6 (T/C endpoint: mean survival time, dose: 3.0 mg/kg/injection, schedule: Q01DX009 (ip), vehicle: other) and 2 of 6 (T/C endpoint: mean survival time, dose: 6.0 mg/kg/injection, schedule: Q01DX009 (ip), vehicle: other).

For `CCOC(=O)c1ccc(OC(=O)Nc2cc(OC)ccc2OC)cc1`, the survivor count under setting [1] is listed as 4 of 6. Turning to `O=C(O)c1ccc(O)cc1C(=O)O.[NH-]C1CCCCC1[NH-].[Pt+2]`, the T/C reads like this: (T/C endpoint: mean survival time, dose: 2.35 mg/kg/injection, schedule: Q04DX003 (ip), vehicle: other) 125 % of control; (T/C endpoint: mean survival time, dose: 4.69 mg/kg/injection, schedule: Q04DX003 (ip), vehicle: other) 133 % of control. For the same compound, the survivor count (T/C endpoint: mean survival time, dose: 37.5 mg/kg/injection, schedule: Q04DX003 (ip), vehicle: other) was 10 of 10. On to `Nc1nc2c(C(=O)N3CCCC3)nnn2c2ccccc12`, for which the survivor count (T/C endpoint: median survival time, dose: 200.0 mg/kg/injection, schedule: Q01DX009 (ip), vehicle: saline with Tween-80) is recorded as 0 of 10.
